Reference: the supplement of paper PMC3334620
Over roughly 33,000 sequences, “E-score (-0.5 to 0.5)” has its median near -0.015; the highest 2% begin near 0.3. The list shows a part of the results.

These sequences were tested against T1, Abf1 (UniProt P14164) (assay: PBM E-score (8-mer binding enrichment) (E-score (-0.5 to 0.5)); higher = stronger / more preferred TF binding). Conditions: protein concentration: 200 nM; construct: GST-full length.
T1 sequence: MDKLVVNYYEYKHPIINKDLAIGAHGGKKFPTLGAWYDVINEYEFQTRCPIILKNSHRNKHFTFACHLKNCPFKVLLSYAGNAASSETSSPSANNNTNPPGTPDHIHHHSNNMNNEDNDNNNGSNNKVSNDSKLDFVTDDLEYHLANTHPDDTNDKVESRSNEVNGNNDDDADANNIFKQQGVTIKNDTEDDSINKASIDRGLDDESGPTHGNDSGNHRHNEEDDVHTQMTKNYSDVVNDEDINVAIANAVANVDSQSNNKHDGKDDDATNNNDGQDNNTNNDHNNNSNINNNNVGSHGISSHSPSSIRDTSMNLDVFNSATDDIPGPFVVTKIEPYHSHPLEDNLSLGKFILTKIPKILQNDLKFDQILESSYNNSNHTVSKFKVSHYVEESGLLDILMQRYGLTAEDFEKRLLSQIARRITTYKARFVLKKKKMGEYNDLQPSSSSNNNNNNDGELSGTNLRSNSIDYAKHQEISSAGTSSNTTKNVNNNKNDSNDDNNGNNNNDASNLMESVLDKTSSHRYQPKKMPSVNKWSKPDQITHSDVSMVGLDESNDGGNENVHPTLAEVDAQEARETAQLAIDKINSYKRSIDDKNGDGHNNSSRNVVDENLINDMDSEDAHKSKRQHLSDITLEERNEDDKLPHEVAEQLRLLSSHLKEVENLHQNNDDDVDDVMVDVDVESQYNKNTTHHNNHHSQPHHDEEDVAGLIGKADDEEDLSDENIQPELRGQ
Procedure, shortened: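 Full-length yeast transcription factors or their DNA-binding domains, GST-tagged and expressed with PURExpress, were applied at about 100-200 nM to universal all-10-mer Agilent arrays. These arrays had been made double-stranded by primer extension on fresh or once-stripped slides. Detection used fluorescent anti-GST, normalisation used masliner, and E-scores for ungapped eight-base words pooled with reverse complements came from the Universal PBM Analysis Suite.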

| Sequence | PBM E-score |
| --- | --- |
| ACCTGCAT | 0.013 |
| CGACACGA | 0.298 |
| AACGAAGC | -0.0275 |
| CTCAATTA | 0.123 |
| CCTTCTCC | -0.217 |
| CCAACGTC | 0.158 |
| AAGGCATG | -0.0413 |
| AGGCGTAA | -0.0163 |
| CGCATACC | -0.0212 |
| ACTAGCAT | -0.0996 |
| CAGACGGA | 0.206 |
| ACATATTC | 0.112 |
| AAACCTGT | 0.00044 |
| GGCCCCAC | -0.135 |
| CTGACTTC | -0.175 |
| CACGCTGG | 0.0781 |
| CAAGTACA | -0.194 |
| AAAGTTTC | 0.0305 |
| GAGTCGCA | -0.284 |
| GGCAATGA | 0.146 |
| CAGGTGAG | -0.0565 |
| AATCGGCC | -0.286 |
| CCGATCCA | -0.168 |
| AACGGGCT | -0.0799 |
| GGTGATTA | 0.242 |

| Sequence | PBM E-score |
| --- | --- |
| ACCCTCCA | -0.232 |
| CATCAGGG | -0.0979 |
| AGCAACCG | 0.0929 |
| CTAGTTAC | 0.0384 |
| AACTTGCG | 0.0405 |
| ATCAGACA | -0.0632 |
| AGGTTGAC | -0.0821 |
| GTACATTA | 0.192 |
| AAGGATTA | -0.138 |
| CAGGGGCA | -0.0965 |
| CTCCTTCA | -0.253 |
| AGGGATAT | 0.037 |
| ATAAACAA | 0.185 |
| CTCATGAA | 0.0449 |
| AGTTTGTG | 0.0523 |
| GCGTAACA | -0.00058 |
| AATTTGCA | -0.0199 |
| GTCAAACA | -0.0854 |
| CCCATGGC | -0.259 |
| GTCCCGTA | 0.0936 |
| ATCCACGG | 0.316 |
| CCGTATCC | 0.11 |
| CATGTGCC | 0.0113 |
| AATTTAAC | 0.158 |
| CACACTAC | -0.0406 |

| Sequence | PBM E-score |
| --- | --- |
| TTAAAAAA | 0.166 |
| GTAGCATA | 0.0973 |
| CGAGCGAG | 0.21 |
| GTAAGGAA | -0.0598 |
| ATTATTCG | 0.278 |
| CGTAATAC | 0.303 |
| CCGCTGGA | -0.222 |
| ACCCCGTG | 0.0514 |
| AACCAATG | 0.00464 |
| GCGTATGA | 0.0421 |
| AATTATAG | 0.101 |
| AAGCCAAC | -0.0296 |
| CAGCGTGC | -0.0572 |
| TGCCTCCA | -0.102 |
| ATTTTCAC | 0.118 |
| CCAGTCCC | -0.112 |
| ATCAACAT | 0.0539 |
| AGGTAAGA | 0.149 |
| CTAGCGAG | -0.0638 |
| CCCCATGC | -0.183 |
| AAGAACGT | 0.136 |
| TTCGTCAA | 0.151 |
| CAATTCAG | 0.0364 |
| GTCTAAAC | 0.00585 |
| CTACTATC | 0.231 |

Given with bars between the fields: part of the list above.
Sequence | PBM E-score
CAGCGTGC | -0.0572
CCAGTCCC | -0.112
CCCCATGC | -0.183
AAGAACGT | 0.136

Random excerpt: 5 entries already listed, in no set order.

| Sequence | PBM E-score |
| --- | --- |
| AGGCGTAA | -0.0163 |
| CACACTAC | -0.0406 |
| CATGTGCC | 0.0113 |
| CATCAGGG | -0.0979 |
| AATTATAG | 0.101 |

Carrying on:

| Sequence | PBM E-score |
| --- | --- |
| ATCAGTAC | 0.0944 |
| CAGACCCG | -0.251 |
| ACGGGCAA | 0.0689 |
| ATTCAATA | 0.133 |
| CGATCGAC | -0.0447 |
| TAGCATGA | 0.0481 |
| TTCATCAA | 0.041 |
| TATTCTAA | 0.0663 |
| AGGATAAG | -0.149 |
| CGAATATC | 0.174 |
| CACCTGAG | -0.172 |
| GCGGCTAA | -0.147 |
| TGGGTGAA | 0.144 |
| GACCAGGA | -0.0435 |
| ACAGGAAT | -0.121 |
| AGCACTTC | 0.0874 |
| GAGCAATA | -0.0765 |
| AAGTGGGG | -0.192 |
| CATTAGTA | 0.0577 |
| ACCCATCC | -0.236 |
| TCATCAAA | 0.063 |
| CACATCTC | -0.117 |
| TCGTTAAA | 0.27 |
| TCGATAGA | 0.118 |
| GAACACCA | -0.192 |

| Sequence | PBM E-score |
| --- | --- |
| ATTAACAA | 0.132 |
| AGAGCCCG | -0.0823 |
| ACTCATCA | 0.131 |
| ACCGTTAT | 0.069 |
| AATCGATA | 0.143 |
| AGGCACCA | -0.153 |
| CCTCCAAG | -0.149 |
| CCTTCCGC | -0.305 |
| ACGCCTAC | -0.0105 |
| AATAGTTA | -0.0177 |
| GAATGACC | 0.0136 |
| ACACATGC | -0.114 |
| GTCTCGTA | 0.155 |
| GAGGATCC | -0.0179 |
| CATTCTGC | -0.00871 |
| CTCAAGCA | 0.0587 |
| AATCATGC | 0.0496 |
| TAAACAGA | -0.0362 |
| ATCACCTA | 0.245 |
| AAGTGGAG | -0.00206 |
| ATGAGATC | 0.183 |
| CAAATTAA | -0.147 |
| CAAAACGA | 0.297 |
| ATCCGTTC | 0.0456 |
| AACGGTGA | 0.135 |

| Sequence | PBM E-score |
| --- | --- |
| AATACAAT | 0.094 |
| CACGACGA | 0.263 |
| CGCGGCTA | -0.149 |
| CGGAGTCC | -0.156 |
| GCATTGCA | 0.0293 |
| AAGGGCAC | -0.0702 |
| ACGCAACC | -0.00069 |
| ACTCATAA | 0.127 |
| CTCTAAAG | -0.0484 |
| AGCTCATG | 0.0262 |
| CTGCCCCC | -0.392 |
| AAAGGTAG | 0.0516 |
| CTGACGCC | -0.261 |
| ATCCCTAG | 0.146 |
| CACTGAAC | -0.0659 |
| ACGCGGTC | -0.0102 |
| ACCACCTA | -0.168 |
| CCACTAGA | -0.27 |
| CGCCCCAC | -0.141 |
| AGCTTGCC | -0.0551 |
| AGGACTCC | -0.394 |
| AACGAGCC | 0.0338 |
| GCGATGGA | 0.17 |
| AGTATATA | 0.31 |
| CTTGCCTC | -0.185 |

| Sequence | PBM E-score |
| --- | --- |
| ATGCCCTA | -0.195 |
| CCTCTTCG | -0.0259 |
| ACGTGGAG | -0.0904 |
| AGACTGTC | -0.218 |
| CCGGCTAC | -0.245 |
| CCCACGAG | 0.0399 |
| CCAAATAG | -0.0458 |
| GAGGTATC | 0.047 |
| ATACTGAC | -0.0663 |
| TCGAACGA | 0.236 |
| CTGAAAAC | 0.0998 |
| CATAAATA | 0.0772 |
| CGGTGTAC | -0.0935 |
| ACCCCTCT | -0.259 |
| CGGCTTTC | -0.112 |
| AGCTAGAG | -0.0248 |
| ACTCCTTC | -0.222 |
| GAGGTCTA | -0.119 |
| ACCGTGTG | 0.0746 |
| ACTGTCAG | 0.132 |
| CGCAATCC | 0.0307 |
| AATTACTC | 0.092 |
